This note sets out measurements from patent publication US20080241125A1 (Dana-Farber, published 2008).

By UniProt entry, the sequences of proteins in these tests, tags left out. Where a name states a change or a piece, a line headed by the entry shows the natural chain unless it says otherwise.
UniProt Q9Y6K9: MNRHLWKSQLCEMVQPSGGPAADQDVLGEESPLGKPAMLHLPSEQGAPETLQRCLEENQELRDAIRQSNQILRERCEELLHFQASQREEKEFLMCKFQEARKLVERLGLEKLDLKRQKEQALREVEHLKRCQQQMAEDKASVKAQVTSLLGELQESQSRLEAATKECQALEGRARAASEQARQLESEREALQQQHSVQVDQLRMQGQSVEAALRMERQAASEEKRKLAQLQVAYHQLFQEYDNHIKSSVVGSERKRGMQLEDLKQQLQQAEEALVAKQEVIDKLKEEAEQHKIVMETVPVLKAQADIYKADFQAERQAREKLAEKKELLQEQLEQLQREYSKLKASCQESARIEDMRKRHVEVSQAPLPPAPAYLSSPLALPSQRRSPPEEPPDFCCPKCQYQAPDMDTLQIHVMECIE
UniProt P15941: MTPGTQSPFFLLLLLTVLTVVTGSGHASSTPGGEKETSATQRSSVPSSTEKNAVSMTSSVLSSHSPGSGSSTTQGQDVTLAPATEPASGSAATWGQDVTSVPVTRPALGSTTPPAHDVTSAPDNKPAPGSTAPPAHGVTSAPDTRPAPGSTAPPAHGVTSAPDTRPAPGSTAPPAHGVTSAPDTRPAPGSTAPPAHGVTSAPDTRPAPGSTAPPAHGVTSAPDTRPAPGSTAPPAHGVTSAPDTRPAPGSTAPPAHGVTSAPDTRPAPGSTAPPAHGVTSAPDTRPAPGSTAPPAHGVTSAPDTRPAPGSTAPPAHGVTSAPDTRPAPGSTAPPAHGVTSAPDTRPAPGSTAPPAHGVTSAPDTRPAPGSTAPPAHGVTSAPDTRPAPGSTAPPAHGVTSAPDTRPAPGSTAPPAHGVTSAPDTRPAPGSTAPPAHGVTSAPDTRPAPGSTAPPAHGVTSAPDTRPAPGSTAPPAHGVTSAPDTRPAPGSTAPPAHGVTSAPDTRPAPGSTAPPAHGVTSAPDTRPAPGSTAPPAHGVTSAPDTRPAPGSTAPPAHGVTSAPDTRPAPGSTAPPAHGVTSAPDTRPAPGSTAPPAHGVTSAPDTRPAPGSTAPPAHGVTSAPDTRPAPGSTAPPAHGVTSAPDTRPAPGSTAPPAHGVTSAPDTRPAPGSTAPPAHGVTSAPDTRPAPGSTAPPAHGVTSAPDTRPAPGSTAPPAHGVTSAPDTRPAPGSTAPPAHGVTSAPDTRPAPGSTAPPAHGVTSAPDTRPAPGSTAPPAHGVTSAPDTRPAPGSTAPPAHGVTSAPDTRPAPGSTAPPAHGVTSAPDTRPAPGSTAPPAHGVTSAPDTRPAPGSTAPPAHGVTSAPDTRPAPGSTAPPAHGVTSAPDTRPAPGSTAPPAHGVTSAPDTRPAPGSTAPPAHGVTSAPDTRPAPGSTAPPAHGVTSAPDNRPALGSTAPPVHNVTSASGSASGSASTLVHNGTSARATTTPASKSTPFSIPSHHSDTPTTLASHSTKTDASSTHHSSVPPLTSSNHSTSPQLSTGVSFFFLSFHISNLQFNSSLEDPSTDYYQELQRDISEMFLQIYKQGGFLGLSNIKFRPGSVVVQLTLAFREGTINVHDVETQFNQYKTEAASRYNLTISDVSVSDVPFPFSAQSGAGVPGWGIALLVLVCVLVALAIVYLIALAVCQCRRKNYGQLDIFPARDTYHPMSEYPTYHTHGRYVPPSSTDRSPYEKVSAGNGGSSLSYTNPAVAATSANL

No constants are given. Whether binding was seen depends on the method and setting. In cells and extracts the contact can be indirect. Some entries that bind do so weakly or less than the wild type.

In assay [1] the target is T1, purified IKKγ (human, UniProt Q9Y6K9 1-419, limits assumed).
T1 construct: also called NEMO
As to the kind of experiment: GST pull-down: GST-MUC1-CD (wild-type reference) on glutathione beads with IKKγ, anti-IKKγ immunoblot (FIG. 11B).

Assay [2] deals with GST-IKKγ (human) (UniProt Q9Y6K9). As to the kind of experiment: GST pull-down: GST-IKKγ on glutathione beads with purified MUC1-CD, anti-MUC1-C immunoblot (legend of FIG. 5B). (In general: A western blot detects proteins with antibodies after separation by electrophoresis.)
Assay [3] deals with GST-IKKγ(197-419) (human) (UniProt Q9Y6K9). The assay can be described thus: GST pull-down: GST-IKKγ fusion proteins on glutathione beads with MUC1-CD, anti-MUC1-C immunoblot (FIG. 5D).
Assay [4] deals with GST-IKKγ (human) (UniProt Q9Y6K9). As to the kind of experiment: GST pull-down: GST-IKKγ on glutathione beads with purified MUC1-CD, anti-MUC1-C immunoblot (FIG. 5B).

Regarding “GST-MUC1-CD (glutathione S-transferase fused to the MUC1-CD polypeptide) (from UniProt P15941 1184-1255)”, the binding result in assay [1] is “binds”.

Consider “MUC1 cytoplasmic domain (MUC1-CD), purified, GST moiety removed with thrombin (from UniProt P15941 1184-1255)”, for which the binding result in assay [2], in assay [3] and in assay [4] was “binds” each time.
